The assay is described as follows: qHTS Assay to Find Inhibitors of Chronic Active B-Cell Receptor Signaling. The conditions noted are these: ABC-DLBCL IkBa-CBG/CBR reporter, luminescence ratio (green luciferase fused to IkBa over red control in TMD8 lymphoma cells), 4 h. The method, boiled down: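 Concentration-response series (up to 46 uM) were applied to TMD8 dual-reporter cells for 4 h at 37C with doxycycline. Green/red ratio, after filter-overlap correction, defined %Activity; red signal alone was normalised to basal cells and zero luminescence.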
For orientation: Quantitative high-throughput screening tests each substance at several concentrations.

Setting [1] is: measured here: CBR red luminescence, cell number.
The mark [2] stands for this setting: measured here: IkBa-CBG green luminescence.

The structures appear in SMILES notation. The list shows a part of the results. These are further read-outs of the screen, such as a control signal, another cell line or another target. No call is given for them. The list favours compounds with an active or inconclusive main result. Words in brackets tell the shape of the fitted curve; partial curves, single points and poor fits give uncertain potencies.

As a reminder, the AC50 is the midpoint of the concentration-response curve, whichever way the signal moves. For the molecule `O=C(O)CCSc1ccc2ccccc2n1`, the AC50 under setting [1] was 20 µM [falling, partial curve, poor fit].
Still for that read-out and setting: the same measure for `O=C(Nc1nnc(SCc2ccccc2Cl)s1)C1COc2ccccc2O1` (stereo not drawn): 7.31 µM [rising, partial curve]; for `CCN(CC(=O)NCc1ccc(Cl)cc1)S(=O)(=O)c1ccc(F)cc1`: 0.562 µM [rising, full curve, poor fit]; for `C[N+]1=C(/C=C/Nc2ccccc2Cl)C(C)(C)c2ccccc21`: 11.6 µM [falling, single point].
In the case of `CN(C)c1ccc(NC(=O)C(=O)C2C(=O)Nc3ccccc32)cc1` (stereo not drawn), under setting [1], the AC50 is 3.16 µM [falling, single point].
The same measure, in the same setting: to `CC[n+]1c(/C=C/N(C)c2ccccc2)oc2ccc(Cl)cc21` belongs 29.1 µM [falling, single point]; to `Cc1ccccc1NC(=O)CSc1nnc(C)c2ccccc12`, 35.5 µM [falling, single point]; to `CC(C)c1ccc(NC(=O)Cc2c(C(=O)O)n(C)c3ccccc23)cc1`, 2.24 µM [rising, full curve, poor fit].
Same read-out and setting: to `COc1ccccc1NC(=O)CSc1nnc(-c2ccco2)n1N` belongs 12.6 µM [falling, partial curve]; to `COC(C[C@@H]1O[C@@H]1C(=O)COCc1ccccc1)OC`, 35.5 µM [rising, single point]; to `CCN(c1cccc(C)c1)S(=O)(=O)c1cn(CC(=O)OC)c2ccc([N+](=O)[O-])cc12`, 3.16 µM [falling, partial curve, poor fit].
Same read-out and setting: the same measure for `O=C1OCCN1c1c(-c2ccccc2)c(-c2cccs2)nc2c(-c3ccccc3)cccc12`: 0.631 µM [falling, partial curve, poor fit]; for `CCOC(=O)Cc1csc(NC(=O)c2ccc(S(=O)(=O)N(CCOC)CCOC)cc2)n1`: 15.8 µM [falling, single point].
In the case of `COc1ccc(CC(NC(C)=O)C(=O)NC2CCN(C(=O)Nc3ccccc3Cl)CC2)cc1OC` (stereo not drawn), the half-maximal activity concentration (AC50) under setting [1] is 0.146 µM [rising, full curve, poor fit].
Turning to `O=C(N/N=C1\CCS(=O)(=O)c2ccc(F)cc21)c1ccc(O)cc1`, the half-maximal activity concentration (AC50) under setting [1] was 6.31 µM [falling, partial curve, poor fit].
Regarding `O=C(COC(=O)c1cc(Br)ccc1O)NNC(=O)c1cccs1`, the AC50 runs as follows: under setting [1], 25.9 µM [rising, partial curve, poor fit]; under setting [2], 23.1 µM [falling, single point].
Turning to `Cn1cc(C(=O)c2ccc(Cl)cc2Cl)cc1C(=O)N/N=C(\N)COc1ccc(Cl)cc1`, under setting [1], the AC50 was 35.5 µM [falling, single point].
Same read-out and setting: to `Cc1ccc(C2N=C(N)Nc3nc(=O)c4ccccc4n32)cc1` (stereo not drawn) belongs 15.8 µM [falling, partial curve, poor fit].
In the case of `CN1CCC(=O)N([C@H](CSc2ccccc2)c2ccccc2)CC1`, the AC50 under setting [1] was 35.5 µM [falling, partial curve, poor fit].
Same read-out and setting: the same measure for `CC(=O)c1c(C)nc(-c2ccc(Cl)cc2)nc1N`: 3.55 µM [rising, partial curve, poor fit]; for `Cc1cc(NS(=O)(=O)c2ccc(NC(=O)COc3ccccc3C(C)(C)C)cc2)no1`: 1.58 µM [falling, full curve, poor fit].
On the same count and under the same terms, to `O=C(CSc1nnc(SCc2cccc3ccccc23)s1)N/N=C/C=C/c1ccccc1[N+](=O)[O-]` belongs 14.6 µM [falling, partial curve, poor fit].
On the same count and under the same terms, to `O=C(NCC(=O)N1CCN(c2ccc(C(F)(F)F)cn2)CC1)c1ccc(Br)o1` belongs 29.1 µM [falling, partial curve, poor fit]; to `Nc1nnc(SCCN2C(=O)c3ccccc3S2(=O)=O)s1`, 11.6 µM [rising, partial curve, poor fit]; to `O=C(N/N=C/C1C(c2ccccc2)C1(Cl)Cl)c1cccc(Br)c1` (stereo not drawn), 15.8 µM [falling, partial curve, poor fit].
In the case of `COCCNC(=O)c1cc2sccc2n1C`, the AC50 under setting [1] is 31.6 µM [rising, single point].
On the same count and under the same terms, the same measure for `O=C(/C=C/c1ccccc1Cl)NC1CCCCC1`: 4.47 µM [falling, full curve]; for `COc1ccc(C(=O)Nc2ccc([N+](=O)[O-])cn2)c(OC)c1`: 0.366 µM [rising, full curve].
For `c1ccc2c(CN3CCSCC3)cccc2c1`, the AC50 under setting [1] was 17.8 µM [rising, single point].
As to `O=C1/C(=C\c2ccccc2)SC(=S)N1CCC(=O)N1CCCCC1CCO` (stereo not drawn), the AC50 under setting [1] is 35.5 µM [falling, partial curve, poor fit].
The same measure, in the same setting: the same measure for `C=CCn1c(SC(C)C(=O)NCc2ccc3c(c2)OCO3)nc2scc(-c3ccccc3)c2c1=O` (stereo not drawn): 35.5 µM [falling, single point].
Consider `O=C(CSc1nnc(-c2ccccn2)n1-c1ccc(Cl)cc1)Nc1ccc2c(c1)OCO2`, for which the AC50 under setting [1] was 29.1 µM [rising, single point].
Regarding `N#CC1=C(N)Oc2cc(N)ccc2C1c1cccc(Br)c1` (stereo not drawn), the AC50 is, setting by setting: under setting [1], 14.1 µM [rising, partial curve]; under setting [2], 6.31 µM [falling, partial curve].
With `COc1ccc(CCNc2ncnc3c2oc2ccccc23)cc1OC`, under setting [1], the AC50 is 11.2 µM [falling, partial curve, poor fit].
Same read-out and setting: the same measure for `CC(NCc1cccn1C)c1ccccc1` (stereo not drawn): 3.16 µM [rising, single point].
On the same count and under the same terms, to `CN(C)C(=O)NC1c2ccccc2-c2ccccc21` belongs 1.12 µM [rising, full curve, poor fit].
For the molecule `Cc1ccc2c(c1)C(=O)C(=O)N2CC(=O)Nc1ccccc1NC(=O)c1ccccn1`, the AC50 by setting is: under setting [1], 15.8 µM [rising, partial curve]; under setting [2], 22.4 µM [falling, single point].
On to `CCN1CCN(c2nc(Nc3ccc(OC)cc3)nc(N)c2[N+](=O)[O-])CC1`, for which, under setting [1], the AC50 was 0.355 µM [rising, full curve, poor fit].
The same measure, in the same setting: the same measure for `CC1CN(C(=S)NC(=O)c2ccccc2)CC(C)O1` (stereo not drawn): 7.94 µM [rising, partial curve, poor fit]; for `COc1ccccc1N1CCN(C(=O)c2cc3c(C)nc4ccccc4c3o2)CC1`: 5.01 µM [falling, partial curve, poor fit].
The same measure, in the same setting: to `O=C(/C=C/c1cccnc1)c1cccc(O)c1` belongs 2.82 µM [falling, full curve, poor fit]; to `C=CCN1C(=Nc2ccccc2)SC/C1=C\C(=O)OC`, 5.62 µM [rising, partial curve, poor fit]; to `FC(F)(F)c1nnc2c(Sc3ccccn3)nc3ccccc3n12`, 2.24 µM [falling, full curve].
The same measure, in the same setting: the same measure for `Cc1ccc(S(=O)(=O)n2nc(OC(=O)c3c(-c4ccccc4Cl)noc3C)cc2N)cc1`: 14.1 µM [falling, partial curve, poor fit]; for `c1ccc(Nc2nc(NCC3CCCO3)c3ccccc3n2)cc1` (stereo not drawn): 25.1 µM [falling, single point]; for `Cc1cccc(NC(=O)N2CCCC2C(=O)NCc2cccs2)c1` (stereo not drawn): 3.26 µM [rising, single point].
Take `COc1ccc(C(=O)O/N=C(\N)c2cccc(C)c2)cc1OC`: the AC50 under setting [1] was 11.2 µM [falling, partial curve].
Still for that read-out and setting: to `CCN(CC)CCNC(=O)c1cc2c(=O)n(CC)c3ccccc3c2s1` belongs 5.62 µM [falling, single point]; to `CCOC(=O)c1c(NC(=O)C(C)N2CCN(C(=O)c3ccco3)CC2)sc2c1CCCC2` (stereo not drawn), 23.1 µM [falling, single point].
On the same count and under the same terms, the same measure for `CC(NC(=O)NC(=O)c1ccc(Cl)cc1Cl)C1CC1` (stereo not drawn): 17.8 µM [rising, single point].
In the case of `CC(C)(C)C(=O)/C(=C/c1cccc([N+](=O)[O-])c1)n1cncn1`, the AC50 was 1.84 µM [falling, full curve] under setting [1] and 4.11 µM [rising, full curve, poor fit] under setting [2].
With `CCOC(=O)c1ccc(NC(=O)c2c(NCc3cc(OC)c(OC)cc3OC)sc3c2CCCC3)cc1`, the concentration at half-maximal activity (AC50) under setting [1] is 4.47 µM [rising, partial curve, poor fit].
Consider `CC1C/C(=C\c2cccnc2)C(=O)/C(=C/c2cccnc2)C1` (stereo not drawn), for which the AC50 under setting [1] is 1.46 µM [falling, full curve].
For the molecule `COc1cccc(Cl)c1NC(=O)N1CCc2c([nH]c3ccccc23)C1C(F)(F)F` (stereo not drawn), under setting [1], the AC50 is 7.08 µM [falling, full curve].
On to `CC(=O)Nc1cccc(OCC(=O)Nc2ccc(F)cc2)c1`, for which the AC50 was 9.2 µM [rising, single point] under setting [1] and 2.31 µM [falling, partial curve, poor fit] under setting [2].
Take `Cc1ccc(S(=O)(=O)/C(C#N)=C/c2c(N3CCOCC3)nc3ccccn3c2=O)cc1`: the AC50 is 12.6 µM [falling, partial curve, poor fit] under setting [1] and 3.55 µM [rising, partial curve, poor fit] under setting [2].
As for `COc1ccc(C(=O)COC(=O)CCc2nc3ccccc3[nH]c2=O)cc1Br`, under setting [1], the AC50 is 25.1 µM [rising, single point].
For the molecule `O=C(Nc1ccc(S(=O)(=O)N2CCCCC2)cc1)c1ccc(Cl)nc1`, the AC50 under setting [1] was 5.17 µM [falling, partial curve, poor fit].
For the molecule `O=C(OCc1ccccc1)c1ccc(Br)o1`, the AC50 under setting [1] was 20.6 µM [rising, single point].
With `Cc1ccc(C)c(NC(=O)c2cc3ccccn3n2)c1`, the AC50 under setting [1] is 9.2 µM [falling, partial curve].
Consider `C=CCn1c(C)cc(C(=O)COC(=O)CNC(=O)c2ccccc2)c1C`, for which the AC50 under setting [1] was 0.82 µM [rising, full curve].
Still for that read-out and setting: the same measure for `O=C(Nc1ccc(Cl)cc1)C(Cl)C(=O)c1ccccc1` (stereo not drawn): 15.8 µM [falling, single point].

The record behind these values is PubChem BioAssay AID493014 (National Center for Advancing Translational Sciences (NCATS), 2011).
